These are yes or no findings as the source states them, for the method shown. Binding seen in cells or lysates may run through a third protein. These calls come from enrichment with a bait or labelling near it, and not all partners need be listed.

The chains behind the UniProt entries cited, without tags or fusion partners.
UniProt Q92754: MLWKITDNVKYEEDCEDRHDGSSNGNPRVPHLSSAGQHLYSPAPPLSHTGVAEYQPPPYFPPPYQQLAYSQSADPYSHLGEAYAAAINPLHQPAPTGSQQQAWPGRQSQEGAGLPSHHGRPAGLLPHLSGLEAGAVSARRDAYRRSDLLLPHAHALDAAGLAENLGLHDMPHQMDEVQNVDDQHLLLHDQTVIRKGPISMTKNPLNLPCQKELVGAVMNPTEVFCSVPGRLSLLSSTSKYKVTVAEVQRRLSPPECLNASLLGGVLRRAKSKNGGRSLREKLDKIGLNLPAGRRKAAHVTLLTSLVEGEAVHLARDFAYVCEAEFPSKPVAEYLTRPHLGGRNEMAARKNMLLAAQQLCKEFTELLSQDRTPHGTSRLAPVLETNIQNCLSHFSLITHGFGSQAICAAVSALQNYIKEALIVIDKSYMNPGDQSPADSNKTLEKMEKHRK
UniProt Q13547: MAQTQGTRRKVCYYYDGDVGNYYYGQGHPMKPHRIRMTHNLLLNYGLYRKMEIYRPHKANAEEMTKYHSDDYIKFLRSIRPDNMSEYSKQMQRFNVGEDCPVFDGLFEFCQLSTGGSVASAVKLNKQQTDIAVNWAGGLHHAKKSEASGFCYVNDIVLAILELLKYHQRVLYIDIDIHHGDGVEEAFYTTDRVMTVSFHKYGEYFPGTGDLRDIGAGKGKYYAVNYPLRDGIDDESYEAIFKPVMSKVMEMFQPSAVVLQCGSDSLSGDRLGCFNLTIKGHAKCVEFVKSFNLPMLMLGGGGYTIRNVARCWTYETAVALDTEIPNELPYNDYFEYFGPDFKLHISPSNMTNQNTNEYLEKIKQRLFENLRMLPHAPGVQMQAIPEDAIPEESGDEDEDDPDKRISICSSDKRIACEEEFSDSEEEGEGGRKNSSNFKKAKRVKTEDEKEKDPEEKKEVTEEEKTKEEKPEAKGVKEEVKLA
UniProt Q99459: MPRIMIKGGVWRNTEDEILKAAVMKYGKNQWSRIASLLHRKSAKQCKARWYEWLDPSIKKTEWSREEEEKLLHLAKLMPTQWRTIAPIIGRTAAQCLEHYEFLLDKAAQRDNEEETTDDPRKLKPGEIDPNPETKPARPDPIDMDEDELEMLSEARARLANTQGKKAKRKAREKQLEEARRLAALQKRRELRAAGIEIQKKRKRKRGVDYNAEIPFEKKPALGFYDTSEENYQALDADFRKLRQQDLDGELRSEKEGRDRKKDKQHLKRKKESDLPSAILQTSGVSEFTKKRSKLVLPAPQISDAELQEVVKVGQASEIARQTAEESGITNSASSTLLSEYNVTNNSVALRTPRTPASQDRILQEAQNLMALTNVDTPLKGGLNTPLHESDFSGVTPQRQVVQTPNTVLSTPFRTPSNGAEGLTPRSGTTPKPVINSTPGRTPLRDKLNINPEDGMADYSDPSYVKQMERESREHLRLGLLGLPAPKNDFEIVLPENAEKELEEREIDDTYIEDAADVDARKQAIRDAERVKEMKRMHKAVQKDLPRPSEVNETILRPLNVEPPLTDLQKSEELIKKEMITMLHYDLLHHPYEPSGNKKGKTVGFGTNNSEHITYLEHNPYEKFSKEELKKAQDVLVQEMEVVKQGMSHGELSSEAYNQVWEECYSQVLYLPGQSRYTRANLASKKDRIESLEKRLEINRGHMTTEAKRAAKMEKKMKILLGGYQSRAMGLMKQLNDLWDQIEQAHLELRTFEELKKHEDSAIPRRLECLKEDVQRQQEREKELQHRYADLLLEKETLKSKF
UniProt O75643: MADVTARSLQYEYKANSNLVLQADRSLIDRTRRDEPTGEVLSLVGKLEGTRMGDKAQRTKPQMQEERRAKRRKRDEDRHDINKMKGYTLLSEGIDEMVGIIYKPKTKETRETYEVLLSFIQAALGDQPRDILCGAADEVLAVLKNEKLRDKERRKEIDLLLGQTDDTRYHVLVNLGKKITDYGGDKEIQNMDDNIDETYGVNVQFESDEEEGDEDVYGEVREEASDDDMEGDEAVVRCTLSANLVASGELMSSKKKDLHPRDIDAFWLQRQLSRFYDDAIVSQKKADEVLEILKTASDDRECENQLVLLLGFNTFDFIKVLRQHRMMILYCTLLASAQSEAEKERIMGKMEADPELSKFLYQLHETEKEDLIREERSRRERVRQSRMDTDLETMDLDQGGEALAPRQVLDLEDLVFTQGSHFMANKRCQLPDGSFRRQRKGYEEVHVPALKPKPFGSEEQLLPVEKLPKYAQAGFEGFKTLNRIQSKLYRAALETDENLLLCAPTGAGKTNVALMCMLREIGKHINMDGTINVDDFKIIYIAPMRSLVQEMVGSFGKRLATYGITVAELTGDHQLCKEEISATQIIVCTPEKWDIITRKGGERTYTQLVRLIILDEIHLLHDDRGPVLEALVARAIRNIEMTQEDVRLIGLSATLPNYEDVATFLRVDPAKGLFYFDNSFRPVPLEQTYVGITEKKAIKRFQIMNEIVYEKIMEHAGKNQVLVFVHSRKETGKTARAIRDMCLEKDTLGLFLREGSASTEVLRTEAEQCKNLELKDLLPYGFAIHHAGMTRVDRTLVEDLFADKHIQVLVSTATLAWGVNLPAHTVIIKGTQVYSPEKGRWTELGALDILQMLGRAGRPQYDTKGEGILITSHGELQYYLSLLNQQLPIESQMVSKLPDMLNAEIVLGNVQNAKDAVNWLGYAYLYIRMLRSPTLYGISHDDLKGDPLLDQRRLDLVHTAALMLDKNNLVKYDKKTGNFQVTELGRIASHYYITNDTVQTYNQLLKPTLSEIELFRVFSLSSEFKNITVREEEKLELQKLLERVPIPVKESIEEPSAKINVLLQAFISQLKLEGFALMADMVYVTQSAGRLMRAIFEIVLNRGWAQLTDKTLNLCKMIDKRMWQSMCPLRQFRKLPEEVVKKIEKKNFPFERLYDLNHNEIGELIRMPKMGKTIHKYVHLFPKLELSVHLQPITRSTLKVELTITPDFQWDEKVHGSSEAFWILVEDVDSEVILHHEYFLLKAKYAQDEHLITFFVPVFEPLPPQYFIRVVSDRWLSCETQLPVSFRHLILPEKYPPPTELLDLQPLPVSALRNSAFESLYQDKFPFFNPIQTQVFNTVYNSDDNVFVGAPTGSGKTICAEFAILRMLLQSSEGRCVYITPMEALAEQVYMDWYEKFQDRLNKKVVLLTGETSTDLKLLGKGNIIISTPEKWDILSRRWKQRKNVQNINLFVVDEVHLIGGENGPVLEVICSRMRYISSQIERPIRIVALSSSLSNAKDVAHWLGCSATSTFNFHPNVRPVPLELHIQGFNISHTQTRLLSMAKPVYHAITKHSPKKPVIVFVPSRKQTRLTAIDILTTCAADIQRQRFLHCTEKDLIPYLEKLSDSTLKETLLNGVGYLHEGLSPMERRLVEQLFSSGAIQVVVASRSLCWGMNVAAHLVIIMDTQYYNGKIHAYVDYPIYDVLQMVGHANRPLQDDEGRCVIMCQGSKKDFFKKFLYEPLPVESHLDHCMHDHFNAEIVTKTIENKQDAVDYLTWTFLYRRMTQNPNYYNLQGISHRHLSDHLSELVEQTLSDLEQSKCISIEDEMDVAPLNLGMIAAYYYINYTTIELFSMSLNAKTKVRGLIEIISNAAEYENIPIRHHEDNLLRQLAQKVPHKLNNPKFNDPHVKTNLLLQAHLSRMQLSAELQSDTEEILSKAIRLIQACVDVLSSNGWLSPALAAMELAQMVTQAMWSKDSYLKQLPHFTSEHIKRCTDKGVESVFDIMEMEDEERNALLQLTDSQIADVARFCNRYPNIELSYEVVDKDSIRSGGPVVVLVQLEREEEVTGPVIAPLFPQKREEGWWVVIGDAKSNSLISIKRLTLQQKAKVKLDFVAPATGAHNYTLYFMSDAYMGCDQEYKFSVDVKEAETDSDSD
UniProt P62304: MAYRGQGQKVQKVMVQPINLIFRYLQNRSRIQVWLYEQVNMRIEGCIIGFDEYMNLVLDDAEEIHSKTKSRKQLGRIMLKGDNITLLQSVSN
UniProt P62308: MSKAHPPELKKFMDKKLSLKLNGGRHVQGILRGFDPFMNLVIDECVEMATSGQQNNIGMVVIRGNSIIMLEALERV
UniProt P62316: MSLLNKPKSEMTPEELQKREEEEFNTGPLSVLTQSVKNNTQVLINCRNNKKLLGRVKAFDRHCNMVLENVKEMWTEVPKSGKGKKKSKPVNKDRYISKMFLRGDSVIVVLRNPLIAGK
UniProt Q92769: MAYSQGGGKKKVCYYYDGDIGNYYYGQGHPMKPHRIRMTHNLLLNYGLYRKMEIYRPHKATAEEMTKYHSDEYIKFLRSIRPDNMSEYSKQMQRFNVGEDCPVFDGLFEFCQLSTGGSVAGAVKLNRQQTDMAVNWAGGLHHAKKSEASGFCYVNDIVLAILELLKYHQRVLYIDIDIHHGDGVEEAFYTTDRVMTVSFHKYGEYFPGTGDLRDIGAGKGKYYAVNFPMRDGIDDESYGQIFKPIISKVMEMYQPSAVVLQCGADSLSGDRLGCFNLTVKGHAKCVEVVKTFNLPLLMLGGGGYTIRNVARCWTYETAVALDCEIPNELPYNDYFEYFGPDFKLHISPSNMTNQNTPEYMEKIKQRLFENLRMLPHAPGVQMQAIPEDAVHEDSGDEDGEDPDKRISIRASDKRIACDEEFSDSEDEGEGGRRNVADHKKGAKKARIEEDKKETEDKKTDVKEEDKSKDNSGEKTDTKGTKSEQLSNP
UniProt P62318: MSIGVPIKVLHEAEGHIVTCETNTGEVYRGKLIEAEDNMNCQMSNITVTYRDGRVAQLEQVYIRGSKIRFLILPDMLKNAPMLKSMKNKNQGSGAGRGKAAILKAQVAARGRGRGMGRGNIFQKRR
UniProt O75533: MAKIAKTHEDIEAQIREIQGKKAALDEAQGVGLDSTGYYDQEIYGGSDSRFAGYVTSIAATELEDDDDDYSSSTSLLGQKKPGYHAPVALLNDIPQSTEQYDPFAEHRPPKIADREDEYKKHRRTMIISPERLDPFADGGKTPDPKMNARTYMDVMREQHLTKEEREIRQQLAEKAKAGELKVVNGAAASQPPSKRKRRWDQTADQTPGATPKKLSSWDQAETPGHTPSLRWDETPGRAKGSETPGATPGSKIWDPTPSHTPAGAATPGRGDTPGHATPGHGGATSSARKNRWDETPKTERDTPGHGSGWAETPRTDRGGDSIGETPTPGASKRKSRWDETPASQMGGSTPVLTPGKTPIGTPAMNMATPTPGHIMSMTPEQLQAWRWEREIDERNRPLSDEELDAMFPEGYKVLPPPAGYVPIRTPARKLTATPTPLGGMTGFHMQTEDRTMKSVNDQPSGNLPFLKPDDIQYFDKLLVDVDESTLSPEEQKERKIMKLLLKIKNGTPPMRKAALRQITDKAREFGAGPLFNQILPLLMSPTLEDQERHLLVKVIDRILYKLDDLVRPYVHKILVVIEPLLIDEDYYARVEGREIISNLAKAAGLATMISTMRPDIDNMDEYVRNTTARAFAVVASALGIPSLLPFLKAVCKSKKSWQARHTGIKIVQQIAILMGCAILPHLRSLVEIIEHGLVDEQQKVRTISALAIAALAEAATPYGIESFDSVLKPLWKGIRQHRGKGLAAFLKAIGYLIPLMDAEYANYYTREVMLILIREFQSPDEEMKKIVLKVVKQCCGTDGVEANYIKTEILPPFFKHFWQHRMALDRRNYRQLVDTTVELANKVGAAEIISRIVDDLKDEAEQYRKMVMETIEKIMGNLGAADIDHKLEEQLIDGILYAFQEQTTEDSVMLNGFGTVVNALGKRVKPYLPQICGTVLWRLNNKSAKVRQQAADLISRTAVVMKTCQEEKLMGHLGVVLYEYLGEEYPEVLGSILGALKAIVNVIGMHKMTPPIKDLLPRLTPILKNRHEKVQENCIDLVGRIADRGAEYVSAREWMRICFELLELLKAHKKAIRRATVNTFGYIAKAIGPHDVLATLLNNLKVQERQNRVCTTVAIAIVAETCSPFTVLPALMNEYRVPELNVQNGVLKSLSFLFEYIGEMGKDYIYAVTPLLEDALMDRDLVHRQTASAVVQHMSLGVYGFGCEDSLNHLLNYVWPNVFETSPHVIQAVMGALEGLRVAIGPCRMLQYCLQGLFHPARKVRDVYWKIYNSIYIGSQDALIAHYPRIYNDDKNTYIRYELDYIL

The assay deals with HA-tagged TFAP2C (UniProt Q92754). The assay is described as follows: affinity purification with mass spectrometry; anti-HA immunoprecipitation of HA-TFAP2C from benzonase-released chromatin-bound fractions of HCT116-Tet-On-shUBA2 cells, without and with Dox (UBA2 knockdown); untransfected cells as control; binding buffer with 0.25 M NaCl and 0.5% Triton X-100, 4°C; gel bands analysed by LC-MS/MS.

“HDAC1 (from UniProt Q13547 1-482) (enzyme)”: the binding entry is recorded as “binds”. For SF3B3 (from UniProt Q15393 1-1217) the value was “binds”; for CDC5L (from UniProt Q99459 1-802), “binds”; for DDX23 (from UniProt Q9BUQ8 1-820), “binds”. For SNRNP200 (from UniProt O75643 1-2136) the value was “binds”; for DHX15 (from UniProt O43143 1-795), “binds”.

As for SNRPE (from UniProt P62304 1-92), the binding entry is reported as “binds”. For SNRPG (from UniProt P62308 1-76) the value was “binds”; for SNRPD2 (from UniProt P62316 1-118), “binds”; for “HDAC2 (from UniProt Q92769 1-488) (enzyme)”, “binds”. For SNRPD3 (from UniProt P62318 1-126) the value was “binds”; for SF3B1 (from UniProt O75533 1-1304), “binds”.

B1: PLRG1 (protein, UniProt O43660 1-514)
chain: MVEEVQKHSVHTLVFRSLKRTHDMFVADNGKPVPLDEESHKRKMAIKLRNEYGPVLHMPTSKENLKEKGPQNATDSYVHKQYPANQGQEVEYFVAGTHPYPPGPGVALTADTKIQRMPSESAAQSLAVALPLQTKADANRTAPSGSEYRHPGASDRPQPTAMNSIVMETGNTKNSALMAKKAPTMPKPQWHPPWKLYRVISGHLGWVRCIAVEPGNQWFVTGSADRTIKIWDLASGKLKLSLTGHISTVRGVIVSTRSPYLFSCGEDKQVKCWDLEYNKVIRHYHGHLSAVYGLDLHPTIDVLVTCSRDSTARIWDVRTKASVHTLSGHTNAVATVRCQAAEPQIITGSHDTTIRLWDLVAGKTRVTLTNHKKSVRAVVLHPRHYTFASGSPDNIKQWKFPDGSFIQNLSGHNAIINTLTVNSDGVLVSGADNGTMHLWDWRTGYNFQRVHAAVQPGSLDSESGIFACAFDQSESRLLTAEADKTIKVYREDDTATEETHPVSWKPEIIKRKRF
B1: the binding result was “binds”.

B2: CWC27 (protein, UniProt Q6UX04 1-472)
chain: MSNIYIQEPPTNGKVLLKTTAGDIDIELWSKEAPKACRNFIQLCLEAYYDNTIFHRVVPGFIVQGGDPTGTGSGGESIYGAPFKDEFHSRLRFNRRGLVAMANAGSHDNGSQFFFTLGRADELNNKHTIFGKVTGDTVYNMLRLSEVDIDDDERPHNPHKIKSCEVLFNPFDDIIPREIKRLKKEKPEEEVKKLKPKGTKNFSLLSFGEEAEEEEEEVNRVSQSMKGKSKSSHDLLKDDPHLSSVPVVESEKGDAPDLVDDGEDESAEHDEYIDGDEKNLMRERIAKKLKKDTSANVKSAGEGEVEKKSVSRSEELRKEARQLKRELLAAKQKKVENAAKQAEKRSEEEEAPPDGAVAEYRREKQKYEALRKQQSKKGTSREDQTLALLNQFKSKLTQAIAETPENDIPETEVEDDEGWMSHVLQFEDKSRKVKDASMQDSDTFEIYDPRNPVNKRRREESKKLMREKKERR
As for B2, the binding entry is “binds”.

For the origin of these results see article PMC11030540.
